Assay [1] addresses T1, human CD3 expressed on cells (Jurkat cells; human primary T cells) (human) (UniProt P07766+P04234+P09693). The experiment in a line: flow cytometry, Jurkat cells.
Assay [2] deals with T1, human CD3 expressed on cells (Jurkat cells; human primary T cells) (human). In words: flow cytometry, human primary T cells. A general note: Flow cytometry measures light scatter and fluorescence of single cells or particles in a stream.
For assay [3], the target named is cynomolgus monkey CD3 expressed on cyno primary T cells (cynomolgus monkey) (UniProt Q95LI5+Q95LI8+Q95LI7). In words: flow cytometry, cyno primary T cells.
Assay [4] concerns the target cynomolgus monkey CD3 expressed on primary T cells (cynomolgus monkey) (UniProt Q95LI5+Q95LI8+Q95LI7). The experiment in a line: flow cytometry, 25 nM, cyno primary T cells.

Protein sequences, listed by entry. Tags and fused reporters are not part of them. Lines headed by an entry give the natural chain unless they say otherwise; changes in a name come on top.
UniProt P07766: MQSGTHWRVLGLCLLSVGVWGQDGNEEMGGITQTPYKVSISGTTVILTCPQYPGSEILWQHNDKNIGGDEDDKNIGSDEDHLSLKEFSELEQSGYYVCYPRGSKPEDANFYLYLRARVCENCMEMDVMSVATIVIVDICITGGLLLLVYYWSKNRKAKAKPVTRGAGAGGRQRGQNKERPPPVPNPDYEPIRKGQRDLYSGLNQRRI
UniProt P04234: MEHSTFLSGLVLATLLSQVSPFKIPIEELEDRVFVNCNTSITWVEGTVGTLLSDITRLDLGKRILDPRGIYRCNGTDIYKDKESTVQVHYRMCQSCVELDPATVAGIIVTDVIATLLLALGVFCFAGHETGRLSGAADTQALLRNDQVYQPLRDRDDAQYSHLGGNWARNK
UniProt P09693: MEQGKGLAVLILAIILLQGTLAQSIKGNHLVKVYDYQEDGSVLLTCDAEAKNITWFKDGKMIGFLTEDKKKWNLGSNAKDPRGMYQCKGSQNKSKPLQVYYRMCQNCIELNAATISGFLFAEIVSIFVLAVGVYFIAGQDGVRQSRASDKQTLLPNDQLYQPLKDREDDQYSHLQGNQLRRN
UniProt Q95LI5: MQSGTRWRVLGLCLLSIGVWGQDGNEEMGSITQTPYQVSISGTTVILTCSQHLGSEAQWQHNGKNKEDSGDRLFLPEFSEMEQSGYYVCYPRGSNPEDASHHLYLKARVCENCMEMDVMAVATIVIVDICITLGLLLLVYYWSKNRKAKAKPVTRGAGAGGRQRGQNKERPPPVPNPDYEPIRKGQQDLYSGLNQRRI
UniProt Q95LI8: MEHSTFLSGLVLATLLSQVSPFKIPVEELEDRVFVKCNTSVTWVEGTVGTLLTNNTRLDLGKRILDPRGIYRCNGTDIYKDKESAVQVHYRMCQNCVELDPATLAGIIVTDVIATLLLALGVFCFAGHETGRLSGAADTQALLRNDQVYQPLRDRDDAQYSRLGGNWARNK
UniProt Q95LI7: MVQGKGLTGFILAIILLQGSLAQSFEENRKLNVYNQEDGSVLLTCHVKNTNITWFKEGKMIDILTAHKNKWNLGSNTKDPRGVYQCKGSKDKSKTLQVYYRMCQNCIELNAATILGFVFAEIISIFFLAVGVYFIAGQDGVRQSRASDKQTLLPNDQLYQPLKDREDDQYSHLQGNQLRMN

Consider ten molecules from patent US20230295310A1.

No constants are given. Whether binding was seen depends on the method and setting.

B1: mAb 270 (antibody, V domains shown)
VH: EIQLVESGGGLVQPGESLKLSCAGSGFTFSVSAMHWVRQASGKGLEWVGRIRNKANSYATAYDASVKGRFTLSRDDSRNTAYLQMNSLKTEDTAVYYCSSYYYLSGTYYNYWGQGTLVTVSS
VL: DIQMTQSPSSLSASVGDRVTITCRASQVIRNDLGWYQQKPGKAPKRLIHSASSLQGGVPSRFSGSGSGTEFTLTISSLQPEDFATYYCQQHNVNPCTFGQGTKLEIK
Consider B1, for which the binding entry in assay [1] and in assay [2] was “no binding (tested: FOI <10 (FOI >=10 = positive); 25 nM)” throughout.

B2: mAb 271 (antibody, V domains shown)
VH: EIQLVESGGGLVQPGESLKLSCAGSGFTFSVSAMHWVRQASGKGLEWVGRIRNKANSYATAYAASVKGRFTLSRDDSKNTAYLQMDSLKTEDTAVYYCSSYYYLSGTYYNYWGQGTLVTVSS
VL: DIQMTQSPSSLSASVGDRVTITCRASQVIRNDLGWYQQKPGKAPKRLIHSASSLQGGVPSRFSGSGSGTEFTLTISSLQPEDFATYYCQQHNVNPCTFGQGTKLEIK
With B2, the binding entry in assay [1] and in assay [2] was “no binding (tested: FOI <10 (FOI >=10 = positive); 25 nM)” throughout.

B3: mAb 272 (antibody, V domains shown)
VH: EIQLVESGGGLVQPGESLKLSCAGSGFTFSVSAMHWVRQASGKGLEWVGRIRNKANSYATAYAASVKGRFTLSRDDSKNTAYLQMNSLKTEDTAVYYCSSYYYLSGTYYNYWGQGTLVTVSS
VL: DIQMTQSPSSLSASVGDRVTITCRASQVIRNDLGWYQQKPGKAPKRLIHSASSLQGGVPSRFSGSGSGTEFTLTISSLQPEDFATYYCQQHNVNPCTFGQGTKLEIK
On to B3, for which the binding entry in assay [1] and in assay [2] was “no binding (tested: FOI <10 (FOI >=10 = positive); 25 nM)” in each case.

B4: mAb 273 (antibody, V domains shown)
VH: EVQLVESGGGLVQPGESLKLSCTASGFTFSVSAIHWVRQASGKGLEWVGRIRSKANSYATAYVASVKGRFTLSRDDSKNTAYLQMNSLKTEDTAVYYCSSYYFVSGTYYNHWGQGTLVTVSS
VL: DIQMTQSPSSLSASVGDRVTITCRASQGIRYDLGWYQQKPGRAPKRLIHSVSSLQSGVPSRFSGSGSGTEFTLTISSLQPEDFATYYCLQHNVNPCTFGQGTKLEIK
On to B4, for which the binding entry in assay [3] was “no binding (tested: FOI <10 (FOI >=10 = positive); 25 nM)”.

B5: mAb 167 (antibody, V domains shown)
VH: EVHLVESGGGLVQPGRSLRLSCAASGFTFDDYAMHWVRQAPGKGLEWVSGISWNSGTIGYADSVKGRFTISRDNAKNSLYLEMNSLRAEDTALYYCAKDSSGYGHYYHYYIDVWGTGTTVTVSS
VL: EIVMTQSPATLSVSPGGRATLSCRASQSVGSNLAWYQQKPGQAPRLLIYDASTRATGIPARFRGSGSGTEFTLTISGLQSEDFAVYYCQLYYNWPHFGQGTRLEIK
Regarding B5, in assay [4], the binding entry is listed as “no binding (tested: FOI >=10 = positive)”.

B6: mAb 161 (antibody, V domains shown)
VH: EVQLVESGGGLVQPGRSLRLSCAASGITFADYTMHWVRQAPGKGLEWVSGISWNSGSIDYADSVKGRFTISRDNAKKTLYLQMNRLRAEDTALYYCAKDSSGYGHYYFYYLDVWGKGTTVTVSS
VL: EIVMTQSPATLSVSPGERATLSCRASQSVSNNLAWYQQKPGQAPRLLIYSTSTRATGIPARFSGSRSGTEFTLTISSLQSEDSAVYYCQQYNNWPHFGQGTRLEIK
B6: the binding result in assay [4] is given as “no binding (tested: FOI >=10 = positive)”.

B7: mAb 172 (antibody, V domains shown)
VH: EVQLVESGGGLVQPGRSLRLSCTTSGFTFDDYTMHWVRQVPGKGLEWVSDISWNSGSVGYADSVKGRFTISRDNAKNSLYLQMNSLRAEDTALYYCVKDSSGYGHYFHYYMDVWGKGTTVTVSS
VL: DIQMTQSPSSLSASVGDRVTITCRASQSISNYLNWYQVKPGKAPKVLIYAASSLQSGVPSRFSGSGSGTDFTLTISSLQPEDFVSYYCHQSYNAPITFGQGTRLESK
B7: the binding entry in assay [3] is “no binding (tested: FOI <10 (FOI >=10 = positive); 25 nM)”.

B8: mAb 173 (antibody, V domains shown)
VH: EVQLVESGGGLVQPGRSLRLSCAASGFTFDDYTMHWVRQVPGKGLEWVSDISWNSGSVGYADSVKGRFTISRDNAKNSLYLQMNSLRAEDTALYYCVKDSSGYGHYFHYYMDVWGKGTTVTVSS
VL: DIQMTQSPSSLSASVGDRVTITCRASQSISNYLNWYQVKPGKAPKVLIYAASSLQSGVPSRFSGSGSGTDFTLTISSLQPEDFVSYYCHQSYNTPITFGQGTRLEIK
On to B8, for which, in assay [3], the binding entry is recorded as “no binding (tested: FOI <10 (FOI >=10 = positive); 25 nM)”.

B9: mAb 77 (antibody, V domains shown)
VH: EVQLVESGGGLVQPGGSLRLSCAASGFTFSNYWMSWVRQAPGKGLEWVANIKQDGSEKYYVDSVRGRFTISRDNAKKSLYLQMNSLRAEDTAVYYCARDNSNYAYWYFDIWGRGTLVTVSS
VL: DIQMTQSPSTLSVSVGDRVTITCRASQSIRKWLAWYQQKPGKAPKLLIFKASSLESGVPSRFSGSGSGTEFTLTISSLQPDDFATYYCQQYDTYSRTFGQGTKVEIK
Regarding B9, the binding result in assay [4] is on record as “no binding (tested: FOI >=10 = positive)”.

B10: mAb 154 (antibody, V domains shown)
VH: QVQLMQSGSELEKPGASVKVSCKASGYTFTSFAINWVRQAPGQGLEWMGWINTITGNPSYAQGFTGRFVFSLDTSVSTAFLQINSLKTEDTAVYYCARYVTSSGKFDYWGQGTLVTVSS
VL: DIQMTQSPSSVSASVGDRVTITCRASRGISRWLDWYQQKPGKAPKLLIYAASNLQGGVPSRFSGSGSGTDFTLTIRSLQPEDFALYYCQQAKTFPFTFGPGTKVDIR
With B10, in assay [4], the binding entry was “no binding (tested: FOI >=10 = positive)”.
